## Library screen at single concentrations

Source: ChEMBL document CHEMBL3988442, “University of Dundee, Small-Polar-MMV Screening Library” (2021).

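Whole-cell growth test on Mycobacterium tuberculosis, read after 3 days in glucose-containing 7H9 medium; the read-out is not stated. Concentration: 500 µM. Higher reads as more growth inhibition (inferred: compounds with an IC50 in retests scored well above the rest). Size under these conditions: about 18,000 compounds, about 1,400 of them at 50% or above in at least one test.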

Each number is a percent effect as filed.
The record does not define 0% and 100%; most values in the screen are far below 50% and negative numbers occur (in some assays of this library far below -100).
The compounds are a random part of those screened.

structure: CCCC(C)C(=O)NCc1c[nH]nc1C (centres undefined)
percent effect: 15.85

structure: CS(=O)(=O)N1CCCN(Cc2nnc(C3CC3)o2)CC1
percent effect: 17.8

structure: CCN(C)C(=O)CNc1ccccc1S(=O)(=O)CC
percent effect: 2.83

structure: Cc1occc1C(=O)N1CCN(c2nccs2)CC1
percent effect: 28.61

structure: CN(CC(=O)NCCC#N)Cc1nc2ccccc2s1
percent effect: 18.32

structure: Cc1nc(O)cc(CNC(=O)c2ncc(F)cc2F)n1
percent effect: -0.7563

structure: O=C(NCCc1ccsc1)NC1CCCCNC1=O (centres undefined)
percent effect: 28.65

structure: CSCc1nc(CN)cs1
percent effect: 14.91

structure: CC(CN1CCOCC1)OC(=O)c1cccn1C(C)C (centres undefined)
percent effect: 23.17

structure: NC(=O)C1CCN(CCSc2ccccc2F)CC1
percent effect: 9.494

structure: CC1Sc2ccc(C(=O)N(C)C)cc2NC1=O (centres undefined)
percent effect: 5.589

structure: Nc1nccc(-c2cncc(F)c2)n1
percent effect: 20.43

structure: O=C(c1ccccc1)N1CCN(Cc2ccco2)CC1
percent effect: 26.16

structure: Cc1noc(C)c1CNC(=O)CCC1CCCN(C)C1 (centres undefined)
percent effect: 0.9503

structure: CNS(=O)(=O)c1ccc(C(=O)NCC2(C)CCC2)o1
percent effect: 29.42

structure: Cc1nn(C)cc1S(=O)(=O)Nc1ccccn1
percent effect: 9.753

structure: NC1CCCN(c2ccccc2Cl)C1=O (centres undefined)
percent effect: -0.776

structure: Cc1cc(C)c2nc(CN3CCC(N)C3)cc(O)c2c1 (centres undefined)
percent effect: 37.69

structure: Cc1cc(N2CCNCC2)ccn1
percent effect: 4.598

structure: O=S(=O)(NCCC(O)c1ccccc1)c1c[nH]cn1 (centres undefined)
percent effect: 10.93

structure: CN1CCC2(CCNCC2)C1=O
percent effect: 11.79

structure: CNC(=O)[C@@H](C)NC1CCCSC1 (some centres undefined)
percent effect: 8.642

structure: CCC(CC)NC(=O)CCn1cncn1
percent effect: -4.991

structure: CNCC(=O)Nc1ccc(C)cc1C(=O)N(C)C
percent effect: -0.8486

structure: COCCCNC(=O)c1c(C)oc(C)c1S(N)(=O)=O
percent effect: -0.314

structure: COCCN1CCCC1C(=O)Nc1ccccc1 (centres undefined)
percent effect: 21.2

structure: CC(C)C(=O)N1CCC(O)CC1
percent effect: -7.515

structure: COc1cc(C(=O)NC2CC2)cc(Cl)c1O
percent effect: 25.83

structure: CCCN1CCCC(C(=O)Nc2cccc(C)n2)C1 (centres undefined)
percent effect: 11.84

structure: COc1ccc(CCCN2CCNC(=O)CC2)cc1F
percent effect: 19.53

structure: O=C(NC1CCN(C2CC2)CC1)c1cncc(Br)c1
percent effect: -2.441

structure: COC(=O)Nc1cc(OC)c(OC)cc1C(=O)OC
percent effect: 12.42

structure: c1ccc(Oc2ncccn2)cc1
percent effect: 5.184

structure: Cc1n[nH]cc1CNCc1nccs1
percent effect: 4.983

structure: Cc1ccccc1C(=O)NCCN1CCN(C)CC1
percent effect: -7.01

structure: CN(C)S(=O)(=O)CCCN1CCC2(CCCNC2=O)C1 (centres undefined)
percent effect: -17.68

structure: COCCC(=O)N(C)C(C)Cc1ncccc1C (centres undefined)
percent effect: 7.44

structure: O=C(C1CCCO1)N1CCN(c2cncc(Cl)n2)CC1 (centres undefined)
percent effect: 34.97

structure: O=C1CCCCN1Cn1cc(I)cn1
percent effect: 62.91

structure: CCN1CCCCC1C(=O)NCCc1ccco1 (centres undefined)
percent effect: 11.16

structure: CN(C)S(=O)(=O)CCCN1CCCC1c1ccccn1 (centres undefined)
percent effect: -2.229

structure: O=C1CC(c2cccnc2)=NCCN1
percent effect: -6.657

structure: CC1CCN(Cc2ccc(C#N)s2)CCS1(=O)=O (centres undefined)
percent effect: 18.2

structure: CCC1CN(CCn2cccn2)CCN1 (centres undefined)
percent effect: -9.276

structure: Cc1cccc(C(=O)NCC(C)N2CCCC2)n1 (centres undefined)
percent effect: 50.79

structure: NCc1nnc2n1CC(C(F)(F)F)CC2 (centres undefined)
percent effect: 6.091

structure: CS(=O)(=O)N1CCOCC12CCC2
percent effect: -6.741

structure: NC1CCN(C(=O)CCn2ccnc2)CC1
percent effect: 1.191

structure: O=C(Nc1cccnc1)c1ccccc1-n1cnnn1
percent effect: 16.84

structure: Cc1cc(NC(=O)CN2CCN(C(C)C)CC2)n(C)n1
percent effect: -28.22

structure: CN1C(=O)C[C@H](CN)[C@H]1c1cccnc1
percent effect: 3.528

structure: Cc1cccc(-n2nnc(C(N)=O)c2N)c1C
percent effect: 24.43

structure: Cc1cc(C)c(S(=O)(=O)NCCO)c(C)c1
percent effect: 26.72

structure: CC(=O)c1ccc(S(C)(=O)=O)c(N2CCC(C)(C)C2)c1
percent effect: 83.57

structure: CC(=O)N1CCCC(C(=O)NCCc2nnc(C)s2)C1 (centres undefined)
percent effect: -2.577

structure: NCCCOc1ncc(C(F)(F)F)cc1Cl
percent effect: 74.81

structure: CN(C)c1cccc(NS(=O)(=O)c2cccs2)n1
percent effect: -1.547

The first 3 entries again:

structure	percent effect
CCCC(C)C(=O)NCc1c[nH]nc1C (centres undefined)	15.85
CS(=O)(=O)N1CCCN(Cc2nnc(C3CC3)o2)CC1	17.8
CCN(C)C(=O)CNc1ccccc1S(=O)(=O)CC	2.83